In PMC3706396:
Results are given in words; binding and its absence hold for the method and conditions named. Binding seen in cells or lysates may run through a third protein. Some entries that bind do so weakly or less than the wild type.

By UniProt entry, the sequences of proteins in these tests, tags left out.
UniProt P31946: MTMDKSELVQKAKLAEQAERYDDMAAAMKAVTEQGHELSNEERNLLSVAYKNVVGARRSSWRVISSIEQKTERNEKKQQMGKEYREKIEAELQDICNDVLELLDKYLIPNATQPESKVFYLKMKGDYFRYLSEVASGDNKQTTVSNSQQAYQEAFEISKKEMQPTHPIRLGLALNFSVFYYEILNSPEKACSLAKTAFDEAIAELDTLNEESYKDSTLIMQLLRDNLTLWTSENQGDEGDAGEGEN

Molecular target: 14-3-3β (human (endogenous in KB)) (UniProt P31946)
Experiment: co-IP; lysates of G2/M synchronized KB, KB-EGFP and KB-S100A8/A9 cells; 14-3-3β captured with anti-14-3-3β antibody and protein-A gel at 4°C, Cdc25C detected by immunoblot; more co-precipitate in KB-S100A8/A9 cells

binding: binds
B1: Cdc25C (protein, UniProt P30307 1-473)
chain: MSTELFSSTREEGSSGSGPSFRSNQRKMLNLLLERDTSFTVCPDVPRTPVGKFLGDSANLSILSGGTPKRCLDLSNLSSGEITATQLTTSADLDETGHLDSSGLQEVHLAGMNHDQHLMKCSPAQLLCSTPNGLDRGHRKRDAMCSSSANKENDNGNLVDSEMKYLGSPITTVPKLDKNPNLGEDQAEEISDELMEFSLKDQEAKVSRSGLYRSPSMPENLNRPRLKQVEKFKDNTIPDKVKKKYFSGQGKLRKGLCLKKTVSLCDITITQMLEEDSNQGHLIGDFSKVCALPTVSGKHQDLKYVNPETVAALLSGKFQGLIEKFYVIDCRYPYEYLGGHIQGALNLYSQEELFNFFLKKPIVPLDTQKRIIIVFHCEFSSERGPRMCRCLREEDRSLNQYPALYYPELYILKGGYRDFFPEYMELCEPQSYCPMHHQDHKTELLRCRSQSKVQEGERQLREQIALLVKDMSP
